Laboratory results reported in article PMC8938553.
Results are given in words; binding and its absence hold for the method and conditions named. Some binding calls cover weakened binding; strength is not graded here.

By UniProt entry, the sequences of proteins in these tests, tags left out.
UniProt Q2G036: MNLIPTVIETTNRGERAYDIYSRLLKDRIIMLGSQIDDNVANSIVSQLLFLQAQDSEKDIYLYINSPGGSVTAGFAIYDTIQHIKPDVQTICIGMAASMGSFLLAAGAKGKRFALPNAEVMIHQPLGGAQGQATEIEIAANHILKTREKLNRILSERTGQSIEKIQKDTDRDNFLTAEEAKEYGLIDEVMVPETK

B1: MecA-homolog (SA0857 locus) of S. aureus (protein, UniProt P60185 1-239)
chain: MRIERVDDTTVKLFITYSDIEARGFSREDLWTNRKRGEEFFWSMMDEINEEEDFVVEGPLWIQVHAFEKGVEVTISKSKNEDMMNMSDDDATDQFDEQVQELLAQTLEGEDQLEELFEQRTKEKEAQGSKRQKSSARKNTRTIIVKFNDLEDVINYAYHSNPITTEFEDLLYMVDGTYYYAVHFDSHVDQEVINDSYSQLLEFAYPTDRTEVYLNDYAKIIMSHNVTAQVRRYFPETTE

Legend:
[1] = target: ClpP (S. aureus) (UniProt Q2G036); assay: two-hybrid; bacterial two-hybrid (T25 and T18 domains of adenylate cyclase) in E. coli BTH101; all combinations of plasmid pairs; beta-galactosidase in Miller units after 48 h at 30 °C in LB with 0.5 mM IPTG
[2] = target: ComK competence regulator of Staphylococcus aureus (S. aureus); assay: as above

Molecule	binding [1]	binding [2]
ComK competence regulator of Staphylococcus aureus (from UniProt A0A0H2XJ42 1-176)	binds	
B1		no binding
